{"source": "PubChem BioAssay AID330", "about": "(DTP/NCI, 2004)", "test_system": "P388 leukemia ip, CD2F1 mice, survival T/C", "test": "NCI In Vivo Anticancer Drug Screen. Data for tumor model P388 Leukemia (intraperitoneal) in CD2F1 (CDF1) mice", "conditions": "T/C endpoint: median survival time, higher T/C = longer survival", "key": {"[1]": {"conditions": "dose: 200.0 mg/kg/injection, schedule: Q01DX009 (ip), vehicle: saline with Tween-80"}, "[2]": {"conditions": "dose: 100.0 mg/kg/injection, schedule: Q01DX009 (ip), vehicle: saline"}, "[3]": {"conditions": "dose: 200.0 mg/kg/injection, schedule: Q01DX009 (ip), vehicle: saline"}}, "note": "The list does not hold the whole screen: it is rich in T/C values a quarter to a half above the control, in often repeated tests (any T/C) and in doses without a T/C. Further doses and runs are listed elsewhere. T/C: endpoint of the treated group in % of that of the vehicle group. Some entries give survivors of the animals treated and no T/C: the source holds a T/C of zero for them, seemingly a mark for toxic or unscored doses. Some survivor counts are full or nearly so, which does not show that the dose was tolerated: the source hardly ever lists a survival T/C far under the control, and the zero likely stands for such cases as well. Survivors were counted at the toxicity check, usually on the fifth day, unless a day is given; later deaths do not show. Schedule codes are those of the source, read here as Q, the interval in days (D) or hours (H), X, the number of doses. Some doses were run more than once; their values stand side by side, smallest first. For survival time, the PubChem record calls one and a half times the control and up active, and a quarter to a half above the control has no call in these data; cut-offs in other NCI protocols can differ. Some T/C values carry the count of animals alive at the toxicity check (mostly the fifth day); where none is given, no animal had died by that day.", "data": [{"smiles": "Cc1[nH]c(=O)[nH]c(=O)c1N(CCF)CCCl", "values": [{"measurement": "T/C", "setting": "dose: 8.0 mg/kg/injection, schedule: Q01DX005 (ip), vehicle: Klucel (hydroxypropylcellulose) (HPC)", "value": "137 % of control"}, {"measurement": "T/C", "setting": "dose: 8.0 mg/kg/injection, schedule: Q03HX024 (ip), vehicle: acid diluted with saline", "value": "125 % of control"}, {"measurement": "T/C", "setting": "dose: 8.4 mg/kg/injection, schedule: Q01DX009 (ip), vehicle: saline with Tween-80", "value": "145 % of control"}, {"measurement": "T/C", "setting": "dose: 16.0 mg/kg/injection, schedule: Q01DX001 (ip), vehicle: saline", "value": "127 % of control"}, {"measurement": "T/C", "setting": "dose: 16.5 mg/kg/injection, schedule: Q04DX003 (ip), vehicle: saline with Tween-80", "value": "133 % of control"}, {"measurement": "T/C", "setting": "dose: 25.0 mg/kg/injection, schedule: Q04DX003 (ip), vehicle: saline with Tween-80", "value": "133 % of control"}, {"measurement": "T/C", "setting": "dose: 32.0 mg/kg/injection, schedule: Q01DX001 (ip), vehicle: acid diluted with saline", "value": "127 and 131 % of control"}, {"measurement": "T/C", "setting": "dose: 32.0 mg/kg/injection, schedule: Q01DX001 (ip), vehicle: saline", "value": "136 % of control"}, {"measurement": "survivor count", "setting": "dose: 32.0 mg/kg/injection, schedule: Q01DX005 (iv), vehicle: Klucel (hydroxypropylcellulose) (HPC)", "value": "3 of 6"}, {"measurement": "T/C", "setting": "dose: 32.0 mg/kg/injection, schedule: Q01DX009 (oral), vehicle: other", "value": "127 % of control"}, {"measurement": "T/C", "setting": "dose: 32.0 mg/kg/injection, schedule: Q01DX009 (sc), vehicle: acid diluted with saline", "value": "137 % of control"}, {"measurement": "survivor count", "setting": "dose: 32.0 mg/kg/injection, schedule: Q03HX008 (oral), vehicle: acid diluted with saline", "value": "5 of 10"}, {"measurement": "survivor count", "setting": "dose: 32.0 mg/kg/injection, schedule: Q03HX008 (oral), vehicle: other", "value": "0 of 10"}, {"measurement": "survivor count", "setting": "dose: 32.0 mg/kg/injection, schedule: Q03HX016 (oral), vehicle: other", "value": "0 of 10"}, {"measurement": "survivor count", "setting": "dose: 32.0 mg/kg/injection, schedule: Q03HX024 (oral), vehicle: acid diluted with saline", "value": "6 of 10"}, {"measurement": "survivor count", "setting": "dose: 32.0 mg/kg/injection, schedule: Q03HX024 (oral), vehicle: other", "value": "0 of 10"}, {"measurement": "survivor count", "setting": "dose: 37.5 mg/kg/injection, schedule: Q04DX003 (ip), vehicle: saline with Tween-80", "value": "6 of 6"}, {"measurement": "survivor count", "setting": "dose: 39.0 mg/kg/injection, schedule: Q01DX009 (ip), vehicle: saline with Tween-80", "value": "1 of 10"}, {"measurement": "T/C", "setting": "dose: 64.0 mg/kg/injection, schedule: Q01DX001 (ip), vehicle: acid diluted with saline", "value": "131 and 136 % of control"}, {"measurement": "survivor count", "setting": "dose: 64.0 mg/kg/injection, schedule: Q01DX005 (ip), vehicle: Klucel (hydroxypropylcellulose) (HPC)", "value": "0 of 6"}, {"measurement": "survivor count", "setting": "dose: 64.0 mg/kg/injection, schedule: Q01DX005 (iv), vehicle: Klucel (hydroxypropylcellulose) (HPC)", "value": "0 of 6"}, {"measurement": "T/C", "setting": "dose: 64.0 mg/kg/injection, schedule: Q01DX009 (oral), vehicle: acid diluted with saline", "value": "127 % of control"}, {"measurement": "T/C", "setting": "dose: 64.0 mg/kg/injection, schedule: Q01DX009 (oral), vehicle: other", "value": "130 % of control [8 of 10 alive]"}, {"measurement": "survivor count", "setting": "dose: 64.0 mg/kg/injection, schedule: Q03HX008 (oral), vehicle: acid diluted with saline", "value": "1 of 10"}, {"measurement": "survivor count", "setting": "dose: 64.0 mg/kg/injection, schedule: Q03HX008 (oral), vehicle: other", "value": "0 of 10"}, {"measurement": "survivor count", "setting": "dose: 64.0 mg/kg/injection, schedule: Q03HX016 (oral), vehicle: acid diluted with saline", "value": "0 of 10"}, {"measurement": "survivor count", "setting": "dose: 64.0 mg/kg/injection, schedule: Q03HX016 (oral), vehicle: other", "value": "0 of 10"}, {"measurement": "survivor count", "setting": "dose: 64.0 mg/kg/injection, schedule: Q03HX024 (oral), vehicle: other", "value": "0 of 10"}, {"measurement": "survivor count", "setting": "dose: 64.0 mg/kg/injection, schedule: Q04DX003 (ip), vehicle: acid diluted with saline", "value": "10 of 10"}, {"measurement": "survivor count", "setting": "dose: 100.0 mg/kg/injection, schedule: Q04DX003 (ip), vehicle: saline with Tween-80", "value": "2 of 6"}, {"measurement": "survivor count", "setting": "dose: 128.0 mg/kg/injection, schedule: Q01DX001 (ip), vehicle: acid diluted with saline", "value": "0 of 10 and 4 of 10"}, {"measurement": "survivor count", "setting": "dose: 128.0 mg/kg/injection, schedule: Q01DX001 (ip), vehicle: saline", "value": "3 of 10 and 5 of 10"}, {"measurement": "survivor count", "setting": "dose: 128.0 mg/kg/injection, schedule: Q01DX001 (oral), vehicle: other", "value": "4 of 10"}, {"measurement": "survivor count", "setting": "dose: 128.0 mg/kg/injection, schedule: Q01DX009 (oral), vehicle: other", "value": "1 of 10"}, {"measurement": "survivor count", "setting": "dose: 128.0 mg/kg/injection, schedule: Q03HX008 (oral), vehicle: acid diluted with saline", "value": "0 of 10"}, {"measurement": "survivor count", "setting": "dose: 128.0 mg/kg/injection, schedule: Q03HX008 (oral), vehicle: other", "value": "0 of 10"}, {"measurement": "survivor count", "setting": "dose: 128.0 mg/kg/injection, schedule: Q03HX016 (oral), vehicle: acid diluted with saline", "value": "0 of 10"}, {"measurement": "survivor count", "setting": "dose: 128.0 mg/kg/injection, schedule: Q03HX016 (oral), vehicle: other", "value": "0 of 10"}, {"measurement": "T/C", "setting": "dose: 128.0 mg/kg/injection, schedule: Q04DX003 (oral), vehicle: acid diluted with saline", "value": "127 % of control"}, {"measurement": "T/C", "setting": "dose: 128.0 mg/kg/injection, schedule: Q04DX003 (oral), vehicle: other", "value": "141 % of control [9 of 10 alive]"}, {"measurement": "survivor count", "setting": "dose: 128.0 mg/kg/injection, schedule: Q08DX002 (ip), vehicle: acid diluted with saline", "value": "2 of 10"}, {"measurement": "T/C", "setting": "dose: 128.0 mg/kg/injection, schedule: Q08DX002 (oral), vehicle: other", "value": "130 % of control [7 of 10 alive]"}, {"measurement": "survivor count", "setting": "dose: 200.0 mg/kg/injection, schedule: Q04DX003 (ip), vehicle: saline with Tween-80", "value": "0 of 6"}, {"measurement": "survivor count", "setting": "dose: 256.0 mg/kg/injection, schedule: Q01DX001 (ip), vehicle: acid diluted with saline", "value": "0 of 10"}, {"measurement": "survivor count", "setting": "dose: 256.0 mg/kg/injection, schedule: Q01DX001 (oral), vehicle: other", "value": "0 of 10"}, {"measurement": "survivor count", "setting": "dose: 256.0 mg/kg/injection, schedule: Q01DX009 (oral), vehicle: other", "value": "0 of 10"}, {"measurement": "survivor count", "setting": "dose: 256.0 mg/kg/injection, schedule: Q04DX003 (oral), vehicle: other", "value": "0 of 10"}, {"measurement": "survivor count", "setting": "dose: 256.0 mg/kg/injection, schedule: Q08DX002 (oral), vehicle: other", "value": "0 of 10"}, {"measurement": "survivor count", "setting": "dose: 400.0 mg/kg/injection, schedule: Q04DX003 (ip), vehicle: saline with Tween-80", "value": "0 of 6"}, {"measurement": "survivor count", "setting": "dose: 512.0 mg/kg/injection, schedule: Q01DX001 (oral), vehicle: other", "value": "0 of 10"}, {"measurement": "survivor count", "setting": "dose: 512.0 mg/kg/injection, schedule: Q04DX003 (oral), vehicle: other", "value": "0 of 10"}, {"measurement": "survivor count", "setting": "dose: 512.0 mg/kg/injection, schedule: Q08DX002 (oral), vehicle: other", "value": "0 of 10"}, {"measurement": "survivor count", "setting": "dose: 1024.0 mg/kg/injection, schedule: Q01DX001 (oral), vehicle: acid diluted with saline", "value": "0 of 10"}, {"measurement": "survivor count", "setting": "dose: 1024.0 mg/kg/injection, schedule: Q01DX001 (oral), vehicle: other", "value": "0 of 10"}, {"measurement": "survivor count", "setting": "dose: 1024.0 mg/kg/injection, schedule: Q08DX002 (oral), vehicle: acid diluted with saline", "value": "0 of 10"}, {"measurement": "survivor count", "setting": "dose: 1024.0 mg/kg/injection, schedule: Q08DX002 (oral), vehicle: other", "value": "0 of 10"}]}, {"smiles": "C[N+]1(C)CCC(OC(=O)C(O)(c2ccccc2)C2CCCC2)C1", "note": "(stereo not given)", "values": [{"measurement": "survivor count", "setting": "dose: 100.0 mg/kg/injection, schedule: Q01DX009 (ip), vehicle: Klucel (hydroxypropylcellulose) (HPC)", "value": "0 of 6"}, {"measurement": "survivor count", "setting": "dose: 200.0 mg/kg/injection, schedule: Q01DX009 (ip), vehicle: Klucel (hydroxypropylcellulose) (HPC)", "value": "0 of 6"}]}, {"smiles": "CNCCCC12CC(c3ccccc31)c1ccccc12", "values": [{"measurement": "survivor count", "setting": "dose: 100.0 mg/kg/injection, schedule: Q01DX009 (ip), vehicle: saline with Tween-80", "value": "6 of 6"}, {"measurement": "survivor count", "setting": "[1]", "value": "3 of 6"}]}, {"smiles": "COc1ccc(C2CC(C)(O)Oc3cc4c(cc32)OCO4)cc1", "note": "(stereo not given)", "values": [{"measurement": "survivor count", "setting": "dose: 240.0 mg/kg/injection, schedule: Q01DX005 (ip), vehicle: Klucel (hydroxypropylcellulose) (HPC)", "value": "6 of 6"}]}, {"smiles": "CCS/C(C#N)=C(/Br)c1ccc(OC)cc1", "values": [{"measurement": "survivor count", "setting": "[1]", "value": "6 of 6"}]}, {"smiles": "COc1ccc(Cc2cc(N=O)c(OC)cc2O)cc1", "values": [{"measurement": "survivor count", "setting": "dose: 200.0 mg/kg/injection, schedule: Q01DX005 (ip), vehicle: saline with Tween-80", "value": "5 of 6"}]}, {"smiles": "O=C(c1cc(F)ccc1Nc1ccccc1)N1CCOCC1", "values": [{"measurement": "survivor count", "setting": "[2]", "value": "6 of 6"}, {"measurement": "survivor count", "setting": "[3]", "value": "6 of 6"}]}, {"smiles": "CCCCCCCCCCCCCCC[N+]1([O-])CCCCCC1", "values": [{"measurement": "survivor count", "setting": "dose: 50.0 mg/kg/injection, schedule: Q01DX009 (ip), vehicle: saline", "value": "6 of 6"}, {"measurement": "survivor count", "setting": "[2]", "value": "5 of 6"}, {"measurement": "survivor count", "setting": "[3]", "value": "0 of 6"}]}, {"smiles": "NC1(c2ccccc2)CON=C(c2ccccc2)C1", "note": "(stereo not given)", "values": [{"measurement": "survivor count", "setting": "dose: 200.0 mg/kg/injection, schedule: Q04DX003 (ip), vehicle: saline", "value": "0 of 6"}, {"measurement": "survivor count", "setting": "dose: 400.0 mg/kg/injection, schedule: Q04DX003 (ip), vehicle: saline", "value": "0 of 6"}]}]}
